Results: paper PMC5381960
The exact form of at least one protein or probe is not confirmed. Protein sequences can lack the tags named with them.

Target: T1, M.HpaII methyltransferase (HpaII DNA cytosine methyltransferase) (UniProt P15446)
T1 sequence (looked up, limits assumed): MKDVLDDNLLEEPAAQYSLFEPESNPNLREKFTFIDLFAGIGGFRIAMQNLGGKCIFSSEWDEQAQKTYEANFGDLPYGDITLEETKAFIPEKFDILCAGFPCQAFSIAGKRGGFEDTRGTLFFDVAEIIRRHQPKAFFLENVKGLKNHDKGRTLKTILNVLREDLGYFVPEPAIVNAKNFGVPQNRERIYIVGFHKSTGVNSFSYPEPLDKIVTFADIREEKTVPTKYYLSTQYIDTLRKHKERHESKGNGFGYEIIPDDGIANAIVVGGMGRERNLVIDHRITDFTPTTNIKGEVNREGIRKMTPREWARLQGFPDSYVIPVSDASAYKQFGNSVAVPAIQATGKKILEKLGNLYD
Assay: covalent adduct trapping at 5-fluoro-dC (used as block in CMG unwinding assay, native PAGE)
Conditions: irreversible, adduct formed as in Duxin 2014, 5-fluoro-dC at second C of CCGG in strand 1 (position 49), phosphorothioate bonds linking the last six dT at the 3' end of strand 2, CMG unwinding assays: 20 mM Tris acetate pH 7.6, 5 mM DTT, 0.1 mM EDTA, 10 mM MgSO4, 30 mM KCl, 40 ug/ml BSA, 1 mM ATP, 30 C, commercial protein, label: 5'-32P on strand 2

## TTTTTTTTTTTTTTTTTTTTTTTTTTTTTTTTTTTTTTTTGACGCTGCCGGATTCTGGCTTGCTAGGACATTACAGGATCGTTCGGTCTC / GAGACCGAACGATCCTGTAATGTCCTAGCAAGCCAGAATCCGGCAGCGTCTTTTTTTTTTTTTTTTTTTTTTTTTTTTTTTTTTTTTTTT [M.HpaII LAG/LEAD fork with 5-fluoro-dC]
  binding result: binds
